Experimental data published in patent publication EP0772773B1, “Src SH3 BINDING PEPTIDES AND METHODS OF ISOLATING AND USING SAME” (THE UNIVERSITY OF NORTH CAROLINA, priority 1994, dated 2006).
“Also recorded” adds a separate entry of the source. Not every detail of the peptide structures is certain; ends, links or a residue may be inferred. Where a SMILES comes first, the peptide text is derived from it.

How the values were obtained:
SH3 domains = experiment: Relative specificity of peptide binding across SH3 domains derived from different proteins; conditions: synthetic peptides; compared with 7-mer RPLPPLP; Figures 7 and 8
From the text: The preparation of Src-GST fusion protein was first described by Smith and Johnson, in Gene (1988) 67:31, the disclosure of which is incorporated by reference herein. Briefly, pGEX-derived (Pharmacia, Piscataway, NJ) constructs expressing GST fusion proteins containing the SH3 domains of Src, Grb2, Crk, Abl, or PLCγ were obtained from Dr. Channing Der (University of North Carolina at Chapel Hill.), a construct expressing the SH3 domain of Yes was obtained from Dr. Marius Sudol (Rockefeller University). The use of the pGEX bacterial expression vector for the production of GST-SH3 fusion proteins is well-known to those in the art. See, e.g., Cicchetti, P. et al., in Science (1992) 257:803-806. […] Thus, fusion proteins were prepared as per the manufacturer's instructions, and quantified by Coomassie Blue staining of SDS-polyacrylamide gels. […] Where appropriate, the amount of protein bound to each well was quantified with an anti-GST antibody-based ELISA (Pharmacia, Piscataway, NJ), and with a GST-binding phage, isolated during the course of this work.
Peptides were obtained from Research Genetics (Birmingham, AL), Chiron Mimotopes (Victoria, Australia), or synthesized by conventional techniques by Dr. J. Mark Carter of cytogen Corporation (Princeton, NJ). Peptide purity was assessed by HPLC and/or mass spectrometry. […]

Xenopus laevis oocytes = experiment: Progesterone-induced oocyte maturation (germinal vesicle breakdown) after peptide injection; assay type: cell-based; conditions: stage VI oocytes injected with 40 nL of 100 mM peptide (100 µM in Fig. 10 legend), scored hourly, versus water

CC[C@H](C)[C@H](NC(=O)[C@@H]1CCCN1C(=O)[C@H](CC(C)C)NC(=O)[C@@H]1CCCN1C(=O)[C@H](CCCNC(=N)N)NC(=O)[C@H](CCCCN)NC(=O)[C@H](CC(C)C)NC(=O)[C@@H](N)C(C)C)C(=O)N1CCC[C@H]1C(=O)N1CCC[C@H]1C(=O)N[C@H](C(=O)N[C@H](C(=O)N[C@@H](CCCNC(=N)N)C(=O)O)[C@@H](C)O)C(C)C [VLKRPLPIPPVTR] (H-VLKRPLPIPPVTR-OH)
relative binding affinity / specificity for SH3 domains (SH3 domains): src preferential; also recorded: avid binding affinity to SH3 domains relative to the 7-mer | rate of progesterone-induced maturation (germinal vesicle breakdown) (Xenopus laevis oocytes): faster rate of progesterone-induced germinal vesicle breakdown; also recorded: increased rate of progesterone-induced maturation; also recorded: accelerated by approximately one hour
